# Assay results reported in PubChem BioAssay AID1671190 (National Center for Advancing Translational Sciences (NCATS), 2021).
# Amino acid sequences for entries named in this document (tags omitted). A change or cut given only in a name is not applied to a line headed by its entry.
# UniProt P18054: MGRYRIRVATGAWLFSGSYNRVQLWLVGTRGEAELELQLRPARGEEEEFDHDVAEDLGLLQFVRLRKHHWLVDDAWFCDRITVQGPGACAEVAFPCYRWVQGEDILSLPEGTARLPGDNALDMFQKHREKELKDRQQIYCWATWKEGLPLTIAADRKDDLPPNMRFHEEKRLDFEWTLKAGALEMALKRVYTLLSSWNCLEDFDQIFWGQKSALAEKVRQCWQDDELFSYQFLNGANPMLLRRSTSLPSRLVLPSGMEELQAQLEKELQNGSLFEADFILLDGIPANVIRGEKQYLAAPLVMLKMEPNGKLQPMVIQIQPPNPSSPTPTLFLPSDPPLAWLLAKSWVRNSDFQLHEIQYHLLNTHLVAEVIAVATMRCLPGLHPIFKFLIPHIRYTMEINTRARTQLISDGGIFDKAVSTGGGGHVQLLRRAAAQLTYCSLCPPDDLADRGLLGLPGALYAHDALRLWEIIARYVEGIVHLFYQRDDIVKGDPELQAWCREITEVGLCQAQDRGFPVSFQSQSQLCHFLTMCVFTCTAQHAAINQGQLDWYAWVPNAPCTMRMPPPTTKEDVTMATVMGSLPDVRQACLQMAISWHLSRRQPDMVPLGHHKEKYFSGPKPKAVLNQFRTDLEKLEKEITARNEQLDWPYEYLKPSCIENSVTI
# “And” between values parts separate entries of the source, which are not always exact repeats. Identical values can stand only once. About 6,100 (1.1%) of roughly 580,000 compounds were called active. This list was built around the results that the source calls inconclusive (neither active nor inactive); the mix of calls is not that of the screen. The call rests on the fitted dose curve; in most records, active means well fitted inhibition curve with a large enough effect; inconclusive means small, poorly fitted or top-dose-only effect, or another doubt; inactive means no such curve, though single readings can be large or run the other way. A potency beside an inconclusive call is a rough fit, not a confirmed value.
# Molecular target: Polyunsaturated fatty acid lipoxygenase ALOX12 (Homo sapiens) (UniProt P18054)
# Assay: Primary qHTS assay for inhibitors of human arachidonate 12S-lipoxygenase (ALOX12): Round 2
# Settings: purified 12hLO, xylenol orange hydroperoxide absorbance; activity change, negative = inhibition: at 108 µM (top of the series) unless noted
# Outline: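 Purified human 12hLO at 150 nM in 25 mM Hepes, 0.01% Triton X-100, pH 7.0, preincubated 15 min at room temperature with compound. Reaction started with 40 uM arachidonic acid, 30 min at room temperature. Hydroperoxide measured by Fe-xylenol orange, 573/405 nm absorbance ratio.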
# On the % scale 0 is the no-effect control and ±100 the full control effect; potency means the concentration at half of the fitted maximal effect.
Compound,"activity change, negative = inhibition",Potency
CCC1(C)CC2(CCCN(CCC(=O)c3ccccc3)C2)CCO1 (centres undefined),inactive: -5.44%,–
O=S(=O)(c1ccc2c(c1)CCN2Cc1ccccc1Br)N1CCOCC1,–,"inconclusive: 126 µM [inhibitor, single point]"
Cc1ccc2nc(NC(=O)COC(=O)c3ccco3)sc2c1,–,"inconclusive: 0.562 µM [inhibitor, full curve, poor fit]"
COc1ccc(CNS(=O)(=O)c2cc(CN3C(=O)c4cccnc4C3=O)ccc2OC)cc1,inactive: -18.8%,–
O=C1SCCC1NC(=O)C(Sc1ccccc1)c1ccccc1 (centres undefined),–,"inconclusive: 50.1 µM [inhibitor, partial curve, poor fit]"
O=C(CSCc1cnn(-c2ccccc2)c1-n1cccc1)NCc1ccc(Cl)cc1,–,"inconclusive: 141 µM [inhibitor, partial curve, poor fit]"
Cc1cc(C)n(C(=O)c2ccc(C)c(S(=O)(=O)N3CCCCCC3)c2)n1,–,"inconclusive: 100 µM [inhibitor, partial curve, poor fit]"
COc1cccc(Nc2nc(-c3ccccc3O)nc3ccccc23)c1,–,"inconclusive: 44.7 µM [inhibitor, partial curve]"
CC(NC(N)=S)c1ccccc1 (centres undefined),–,"inconclusive: 4.47 µM [inhibitor, partial curve, poor fit]"
COc1cc2c(cc1OC)CN(C(=O)c1cccc(S(=O)(=O)N(C)C)c1)CC2,inactive: 0.371%,–
Cc1ccc(C(=O)NCc2nnc3c(-c4nc(C)no4)cccn23)cc1,inactive: 34.5%,–
Cc1cccc(Nc2nc(C(=O)NC3CCCCC3)cs2)c1,–,"inconclusive: 0.708 µM [inhibitor, full curve, poor fit]"
Cc1cc(N(C)C)nc(Nc2ccc(NC(=O)Nc3ccc(F)cc3)cc2)n1,–,"inconclusive: 44.7 µM [inhibitor, partial curve]"
COc1ccccc1-n1cc(-c2ccnc(N3CCCN(C(C)=O)CC3)n2)cn1,inactive: 68.5%,–
CC1CCCN(CCOc2cccc(Oc3ccccc3)c2)C1 (centres undefined),–,"inconclusive: 0.282 µM [inhibitor, full curve, poor fit]"
O=C1CS/C(=N\C(=O)N2c3ccccc3Sc3ccccc32)N1,–,"inconclusive: 126 µM [inhibitor, single point]"
CCOC(=O)N1CCN(c2ccc([N+](=O)[O-])cc2F)CC1C (centres undefined),–,"inconclusive: 44.7 µM [inhibitor, partial curve, poor fit]"
COc1ccc(CN(C)CCc2ccccn2)cc1OC,–,"inconclusive: 2.24 µM [inhibitor, full curve, poor fit]"
CCC(C)Sc1cccc(-c2nc3cc(C)ccn3c2NC2CCCCC2)c1 (centres undefined),–,"inactive and inconclusive: 31.6 µM [inhibitor, partial curve, poor fit]"
Cc1[nH]nc2c1C(c1ccccc1F)C(C#N)=C(N)O2 (centres undefined),inactive: 31.6%,–
CC(C)c1nc2ccccc2n1CC(O)COC1CCCCC1 (centres undefined),inactive: 11.5%,–
O=[N+]([O-])c1ccc(S(=O)(=O)N2CCN(Cc3c[nH]c4ccccc34)CC2)cc1,–,"inconclusive: 0.631 µM [inhibitor, full curve, poor fit]"

Compound,"activity change, negative = inhibition",Potency
COCCNC(=O)C[C@@H]1C[C@H]2O[C@H](CN(C)C)[C@@H](O)[C@H]2O1,inactive: -0.0319% [at 176 µM],–
CCOC(=O)[C@H]1[C@H]2COc3ccc(C)cc3[C@@H]2N2C(=O)CN(Cc3ccc(C)cc3)C(=O)[C@@]12C,–,"inconclusive: 89.1 µM [inhibitor, single point]"
CC(OC(=O)c1cc(S(=O)(=O)N2CCOCC2)ccc1F)C(=O)NCC1CCCCC1 (centres undefined),–,"inconclusive: 112 µM [inhibitor, single point]"
COc1ccc2[nH]cc(CCNc3cc(-c4ccccc4Cl)ncn3)c2c1,–,active: 15.8 µM
C=CCNC(=O)COC(=O)c1c2c(nc3ccccc13)CCC2,–,"inconclusive: 50.1 µM [inhibitor, partial curve, poor fit]"
O=C(Nc1cccnc1)c1ccc2nc(-c3ccccc3)c(-c3ccccc3)nc2c1,inactive: -1.23%,–
CCOC(=O)Nc1cccc(N2CCn3c(nc4cc(Cl)ccc43)C2)c1,–,"inconclusive: 39.8 µM [inhibitor, partial curve, poor fit]"
CNC(=O)N1C[C@@H](CN(C)C)[C@H](NC(=O)c2ccco2)C1,inactive: 55.8%,–
CCc1ccc(-c2ccc3nnc(SCC(N)=O)n3n2)cc1,–,"inconclusive: 22.4 µM [inhibitor, partial curve, poor fit]"
CN(C(=O)Cn1nc2n(c1=O)CCCCC2)C1CCCCC1,inactive: 77%,–
CCN(CC)c1nc2n(c(=S)n1)CCS2,–,"inconclusive: 20 µM [inhibitor, full curve, poor fit]"
COc1ccc(C(=O)N/C(=C/c2cccnc2)C(=O)Nc2cccc(C(C)=O)c2)cc1OC,inactive: 4.78%,–
CC(C)c1ccc2[nH]c3c(c2c1)[C@@H]1CCN2C(=O)CCC[C@H](C3)[C@H]12,inactive: -10.1%,–
CCn1nc(C)c(-c2cc(C(=O)NCC34CCC=C3N(C)C(=O)CC4)no2)c1C (centres undefined),inactive: 29.8%,–
Cc1ccccc1-n1c(O)cc(=O)[nH]c1=S,inactive: -28.2%,–
O=C(NC1CC1)C(NCc1cccc(C(F)(F)F)c1)c1ccc(F)cc1 (centres undefined),–,"inconclusive: 79.4 µM [inhibitor, partial curve, poor fit]"
CC(C)c1ccc(OCC(O)CN2CCN(c3ccccc3)CC2)cc1 (centres undefined),–,"inconclusive: 39.8 µM [inhibitor, partial curve, poor fit]"
Clc1ccc(OCc2nn3c(C4CCCCC4)nnc3s2)cc1,–,"inconclusive: 50.1 µM [inhibitor, partial curve, poor fit]"
COc1ccc(CCC(=O)NCC(c2ccco2)N2CCc3ccccc32)cc1 (centres undefined),–,"inconclusive: 89.1 µM [inhibitor, single point]"
O=c1[nH]cnc2c1ncn2C1CCC(CO)O1 (centres undefined),–,"inconclusive: 100 µM [inhibitor, partial curve, poor fit]"
CSC1=N/C(=C\c2ccc(C)o2)C(=O)S1,–,active: 44.7 µM
CCN(CC)CCOCCOC(=O)C(CC)(CC)c1ccccc1,–,"inconclusive: 3.55 µM [inhibitor, full curve, poor fit]"
